# Measurements as given in PubChem BioAssay (NCATS).
# Inconclusive results, whose numbers are uncertain, are shown with a selection of clear calls. A potency beside an inconclusive call is a rough fit, not a confirmed value. The source made the active and inactive calls. The call rests on the fitted dose curve; in most records, active means well fitted curve in the direction sought with a large enough effect; inconclusive means small, poorly fitted or top-dose-only effect, or another doubt; inactive means no such curve, though single readings can be large; an effect the other way counts as inactive or inconclusive.
# What was measured:
# [1] = molecular target: Retinaldehyde dehydrogenase 3 (Homo sapiens) (UniProt P47895); test: qHTS for Inhibitors of the Aldehyde Dehydrogenase Family (ALDH1A3) Validation screen (AID 2061312); details: ALDH1A3 enzyme inhibition qHTS validation, fluorescence; activity change, negative = inhibition: at 84.7 µM (top of the series); further: nearly all actives have a fitted effect of over 45% in size; on activity change, negative = inhibition: on the % scale 0 is the no-effect control and ±100 the full control effect
# [2] = molecular target: Retinaldehyde dehydrogenase 3 (Homo sapiens) (UniProt P47895); test: qHTS for Inhibitors of the Aldehyde Dehydrogenase Family (ALDH1A3) Primary screen (AID 2061315); details: ALDH inhibition qHTS; activity change, negative = inhibition: at 56 µM (top of the series) unless noted;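 on activity change, negative = inhibition: plate controls were DMSO vehicle for no effect and reference inhibitor for full effect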
# [3] = BET inhibitor-based combinations targeting novel dependencies in MECOM-rearranged (r) AML: OCI-AML3 cell line (AID 2202232); details: CellTiter-Glo luminescence, 48 h; Potency: OCI-AML3 viability; viability (% of control): at 46 µM (top of the series); further: nearly all actives have a fitted effect of over 35% in size;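 on viability (% of control): plate controls were DMSO vehicle wells for no effect and wells without cells for full effect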
# Method in brief: (§1)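 Luminescent ATP readout (CellTiter-Glo) after 48 hr drug exposure gives viability. Curves span 11 concentrations and are normalized to DMSO and empty wells. Activity is reported as area under the curve and its Z-transform within each cell line.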
# [4] = BET inhibitor-based combinations targeting novel dependencies in MECOM-rearranged (r) AML: HNT-34 cell line (AID 2202234); details: HNT-34 AML viability, CellTiter-Glo luminescence, 48 h; series mostly up to 46 µM; further: nearly all actives have a fitted effect of over 35% in size;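 on viability (% of control): plate controls were vehicle wells for no effect and cell-free wells for full effect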
# Method in brief: (§2)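 Luminescent ATP readout (CellTiter-Glo, 15 min at room temperature) after 48 hr drug exposure gave viability. Dose-response curves, normalized to DMSO and empty-well controls, were summarized as area under the curve and its mean-centred Z-score.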
# [5] = BET inhibitor-based combinations targeting novel dependencies in MECOM-rearranged (r) AML: UCSD-AML1 cell line (AID 2202235); details: UCSD-AML1 AML cells viability, CellTiter-Glo, 48 h; viability (% of control): at 46 µM (top of the series); further: nearly all actives have a fitted effect of over 40% in size;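 on viability (% of control): plate controls were DMSO vehicle wells for no effect and blank wells for full effect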
# Method in brief: as §2
# [6] = BET inhibitor-based combinations targeting novel dependencies in MECOM-rearranged (r) AML: AML-194 cell line (AID 2202237; further: nearly all actives have a fitted effect of over 40% in size;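 on viability (% of control): plate controls were vehicle wells for no effect and wells without cells for full effect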); details: AML-194 (MECOM-r AML) viability, CellTiter-Glo, 48 h; series mostly up to 46 µM
# Method in brief: as §1
# [7] = BET inhibitor-based combinations targeting novel dependencies in MECOM-rearranged (r) AML: SET-2 cell line (AID 2202231); details: SET-2 AML cells viability, CellTiter-Glo luminescence, 48 h; viability: hits give low values, concentration not given here; further: nearly all actives have a fitted effect of over 35% in size;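 on viability: plate controls were DMSO treated cells for no effect and wells without cells for full effect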
# Method in brief: as §1
# [8] = BET inhibitor-based combinations targeting novel dependencies in MECOM-rearranged (r) AML: MV-4-11 cell line (AID 2202233); details: MV-4-11 AML viability, CellTiter-Glo luminescence, 48 h; viability, % of control: at 46 µM (top of the series) unless noted; further: nearly all actives have a fitted effect of over 45% in size;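 on viability, % of control: plate controls were DMSO for no effect and blank wells for full effect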
# Method in brief: as §2
# [9] = BET inhibitor-based combinations targeting novel dependencies in MECOM-rearranged (r) AML: AML-191 cell line (AID 2202236; further: nearly all actives have a fitted effect of over 35% in size;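 on viability (% of control): plate controls were vehicle wells for no effect and wells without cells for full effect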); details: AML-191 viability, CellTiter-Glo luminescence, 48 h; series mostly up to 46 µM
# Method in brief: as §1
# Potency means the concentration at half of the fitted maximal effect.
compound,measurement,setting,value
CN1CCc2c(n(Cc3ccc(C(=O)NO)cc3)c3ccccc23)C1,Potency,[1],"inconclusive: 31.6 µM [inhibitor, full curve, poor fit]"
same,Potency,[2],"inconclusive: 7.94 µM [inhibitor, full curve]"
same,Potency,[3],"inconclusive: 29.5 µM [inhibitor, single point]"
same,Potency,[4],"inconclusive: 23.5 µM [inhibitor, partial curve]"
same,Potency,[5],inactive
same,Potency,[6],"inconclusive: 26.3 µM [inhibitor, single point]"
Fc1ccc(CN2CCC(Nc3ccc(C(F)(F)F)nn3)CC2)cc1F,Potency,[1],"inconclusive: 5.62 µM [inhibitor, full curve]"
same,Potency,[2],"inconclusive: 12.6 µM [inhibitor, partial curve, poor fit]"
O=C(O)C1(c2ccc(-c3ccc(Cl)c(Cl)c3)c(F)c2)CC1,Potency,[1],active: 44.7 µM
same,Potency,[2],"inconclusive: 20 µM [inhibitor, single point]"
NC1CCCCN(c2c(F)cc3c(=O)c(C(=O)O)cn(C4CC4)c3c2Cl)C1 (stereo not given),Potency,[1],"inconclusive: 11.2 µM [inhibitor, full curve, poor fit]"
same,Potency,[2],inactive
COc1ccccc1OCC(O)CN1CCN(CC(=O)Nc2c(C)cccc2C)CC1 (stereo not given),Potency,[1],"inconclusive: 2 µM [inhibitor, full curve]"
same,viability,[7],inactive: 110%
same,Potency,[3],"inconclusive: 8.33 µM [inhibitor, full curve, poor fit]"
same,Potency,[8],inactive
same,Potency,[4],inactive
same,Potency,[5],"inconclusive: 37.2 µM [inhibitor, single point]"
same,Potency,[9],inactive
CCCCOc1ccc(C(=O)Nc2ccc(F)cc2F)cc1,Potency,[1],"inconclusive: 28.2 µM [inhibitor, partial curve, poor fit]"
same,Potency,[2],"inconclusive: 22.4 µM [inhibitor, partial curve, poor fit]"
same,Potency,[3],inactive
same,Potency,[8],"inconclusive: 11.8 µM [inhibitor, partial curve, poor fit]"
same,Potency,[4],inactive
COc1cncc(C#Cc2ccccn2)c1,Potency,[1],active: 22.4 µM
same,Potency,[2],"inconclusive: 15.8 µM [inhibitor, partial curve]"
CC[C@@H](Nc1c(Nc2cccc(C(=O)N(C)C)c2O)c(=O)c1=O)c1ccc(C)o1,Potency,[1],"inconclusive: 6.31 µM [inhibitor, full curve]"
same,Potency,[2],"inconclusive: 2.51 µM [inhibitor, full curve, poor fit]"
C=C(c1ccc(C(=O)O)cc1)c1cc2c(cc1C)C(C)(C)CCC2(C)C,Potency,[1],inactive
same,Potency,[3],"inconclusive: 5.9 µM [inhibitor, partial curve]"
same,Potency,[4],"inconclusive: 4.17 µM [inhibitor, partial curve]"
same,Potency,[5],"inconclusive: 26.3 µM [inhibitor, single point]"
same,Potency,[9],"inconclusive: 8.33 µM [inhibitor, partial curve]"
same,Potency,[6],inactive
FC(F)(F)c1ccc(Nc2nc(-c3c(C(F)(F)F)nc4ccccn34)cs2)cc1,Potency,[1],"inconclusive: 11.2 µM [inhibitor, full curve, poor fit]"
same,Potency,[7],active: 0.833 µM
same,Potency,[5],active: 0.332 µM
COC(=O)[C@@H]1[C@H]2C[C@H]3c4[nH]c5ccccc5c4CCN3C[C@@H]2CC[C@@H]1O,Potency,[1],"inconclusive: 3.98 µM [inhibitor, partial curve, poor fit]"
same,Potency,[3],"inconclusive: 2.63 µM [inhibitor, partial curve, poor fit]"
same,Potency,[8],"inconclusive: 11.8 µM [inhibitor, partial curve, poor fit]"
same,Potency,[4],inactive
same,Potency,[5],"inconclusive: 20.9 µM [inhibitor, partial curve, poor fit]"
CC(C[N+](C)(C)C)OC(N)=O (stereo not given),Potency,[1],inactive
same,Potency,[3],"inconclusive: 0.0059 µM [inhibitor, full curve, poor fit]"
same,Potency,[8],inactive
same,Potency,[4],inactive
same,Potency,[5],"inconclusive: 29.5 µM [inhibitor, single point]"
COc1cccc2c1c(O)c(C(=O)N(C)c1ccc(C(F)(F)F)cc1)c(=O)n2C,Potency,[1],"inconclusive: 28.2 µM [inhibitor, full curve, poor fit]"
same,Potency,[3],inactive
same,Potency,[4],"inconclusive: 37.2 µM [inhibitor, single point]"
same,Potency,[5],inactive
Cc1c(NC(=O)OC[C@@H]2COCCN2)cn2ncnc(Nc3ccc4c(cnn4Cc4cccc(F)c4)c3)c12,Potency,[1],inactive
same,Potency,[7],"inconclusive: 23.5 µM [inhibitor, single point]"
same,Potency,[5],"inconclusive: 26.3 µM [inhibitor, single point]"
same,Potency,[9],"inconclusive: 20.9 µM [inhibitor, partial curve]"

# Pulled one by one from the list above (4):
compound,measurement,setting,value
CCCCOc1ccc(C(=O)Nc2ccc(F)cc2F)cc1,Potency,[2],"inconclusive: 22.4 µM [inhibitor, partial curve, poor fit]"
COC(=O)[C@@H]1[C@H]2C[C@H]3c4[nH]c5ccccc5c4CCN3C[C@@H]2CC[C@@H]1O,Potency,[3],"inconclusive: 2.63 µM [inhibitor, partial curve, poor fit]"
CN1CCc2c(n(Cc3ccc(C(=O)NO)cc3)c3ccccc23)C1,Potency,[4],"inconclusive: 23.5 µM [inhibitor, partial curve]"
FC(F)(F)c1ccc(Nc2nc(-c3c(C(F)(F)F)nc4ccccn34)cs2)cc1,Potency,[1],"inconclusive: 11.2 µM [inhibitor, full curve, poor fit]"
